From US11174518B2, “Method of classifying and diagnosing cancer” (Cedars-Sinai Medical Center, priority 2015, dated 2021)

Tested on: prostate cancer specimens
Experiment: Gene expression patterns (fold change) of subtype-enriched genes in PCS1, PCS2 and PCS3
Parameters: species or system human

DKK1
Fold Change PCS1 (gene expression in PCS1 subtype): −0.3736
Fold Change PCS2 (gene expression in PCS2 subtype): −0.2958
Fold Change PCS3 (gene expression in PCS3 subtype): 0.5922
Fold change in PCS1 (subtype-enriched gene (SEG) expression, subtype PCS1): −0.37
Fold change in PCS2 (subtype-enriched gene (SEG) expression, subtype PCS2): −0.3
Fold change in PCS3 (subtype-enriched gene (SEG) expression, subtype PCS3): 0.592
